Values of other authors as cited in patent US6027748A, “Pharmaceutical tablet, completely coated, for controlled release of active principles that present problems of bio-availability linked to gastro-intestinal absorption” (Jagotec AG, priority 1997, dated 2000).

Conditions: food in stomach and first portion of small intestine

For `COC(=O)C1=C(C)NC(C)=C(C(=O)OC)C1c1ccccc1[N+](=O)[O-]` [nifedipine], the “effect of presence of food on absorption” value is listed as “dramatically affected by the presence of food”.
